{
  "sequences": {"note": "The chains behind the UniProt entries cited, without tags or fusion partners.", "UniProt Q05397": "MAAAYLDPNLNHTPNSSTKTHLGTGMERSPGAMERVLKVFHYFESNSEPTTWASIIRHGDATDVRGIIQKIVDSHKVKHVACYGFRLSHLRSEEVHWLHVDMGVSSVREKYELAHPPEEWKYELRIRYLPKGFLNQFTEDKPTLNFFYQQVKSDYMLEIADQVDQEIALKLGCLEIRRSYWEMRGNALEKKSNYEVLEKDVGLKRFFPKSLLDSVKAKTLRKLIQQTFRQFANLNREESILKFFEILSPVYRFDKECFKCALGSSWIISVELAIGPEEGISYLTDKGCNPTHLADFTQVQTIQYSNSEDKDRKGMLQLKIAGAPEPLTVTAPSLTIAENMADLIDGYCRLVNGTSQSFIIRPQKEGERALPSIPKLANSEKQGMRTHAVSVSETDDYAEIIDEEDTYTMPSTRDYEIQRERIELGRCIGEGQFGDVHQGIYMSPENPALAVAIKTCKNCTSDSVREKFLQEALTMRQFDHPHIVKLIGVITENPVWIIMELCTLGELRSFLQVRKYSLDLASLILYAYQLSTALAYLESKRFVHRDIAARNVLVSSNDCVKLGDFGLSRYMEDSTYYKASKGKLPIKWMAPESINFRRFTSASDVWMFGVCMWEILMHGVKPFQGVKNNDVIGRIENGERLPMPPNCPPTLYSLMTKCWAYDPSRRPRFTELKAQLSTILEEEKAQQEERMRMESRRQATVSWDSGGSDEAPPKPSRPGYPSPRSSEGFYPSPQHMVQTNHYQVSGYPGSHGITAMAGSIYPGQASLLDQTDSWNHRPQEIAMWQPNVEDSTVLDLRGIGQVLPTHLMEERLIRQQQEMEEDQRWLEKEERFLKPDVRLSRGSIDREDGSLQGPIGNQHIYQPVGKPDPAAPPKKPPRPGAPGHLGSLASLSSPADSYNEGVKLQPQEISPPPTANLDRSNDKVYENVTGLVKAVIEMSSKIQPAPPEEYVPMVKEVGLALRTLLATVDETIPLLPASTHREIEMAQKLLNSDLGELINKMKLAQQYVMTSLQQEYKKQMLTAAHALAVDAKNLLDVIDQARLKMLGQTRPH"},
  "source": "paper PMC8101327",
  "binders": {"B1": {"name": "Brain and Acute Leukemia, Cytoplasmic (BAALC) (protein, UniProt Q8WXS3 1-145)", "chain": "MGCGGSRADAIEPRYYESWTRETESTWLTYTDSDAPPSAAAPDSGPEAGGLHSGMLEDGLPSNGVPRSTAPGGIPNPEKKTNCETQCPNPQSLSSGPLTQKQNGLQTTEAKRDAKRMPAKEVTINVTDSIQQMDRSRRITKNCVN"}},
  "target": "focal adhesion kinase (FAK) (human (endogenous in MCF-7)) (UniProt Q05397)",
  "experiment": "co-IP; MCF-7-EV and MCF-7-BAALC cell lysates (500 µg) incubated with BAALC antibody, FAK antibody or IgG control and Protein A/G agarose overnight at 4°C; beads washed 3 times in TBST; BAALC and FAK detected by western blotting",
  "note": "Results are given in words; binding and its absence hold for the method and conditions named. In cells and extracts the contact can be indirect. Some binding calls cover weakened binding; strength is not graded here.",
  "data": [
    {"binder": "B1", "values": [
      {"measurement": "binding", "value": "binds"}
    ]}
  ]
}
